Measurements: PubChem BioAssay AID330 (DTP/NCI, 2004)
The list is a part of this screen's results and no random one: it gathers tests that were run many times, whatever their T/C, doses with no T/C, and many T/C values between a quarter and a half above the control. Other doses and runs of a compound stand elsewhere. T/C is the treated group as % of the vehicle group. Some doses have a count of surviving animals in place of a T/C: the source holds a T/C of zero for them, seemingly a mark for toxic or unscored doses. Some doses without a T/C left all or most animals alive at the check, yet need not have been tolerated: survival well below the control is almost never listed, so the zero probably covers shortened survival too. Counts of survivors are from the toxicity check (mostly the fifth day) where no day follows; animals may have died later. Schedules are NCI's codes, read here as Q, the interval in days (D) or hours (H), X, the number of doses. Some doses were run more than once; the values are given in rising order. For survival time, this PubChem deposit counts one and a half times the control or more as active, and values a quarter to a half above the control carry no call in these data; other NCI protocols may use other cut-offs. Some T/C values carry the count of animals alive at the toxicity check (mostly the fifth day); where none is given, no animal had died by that day. Additions like (4×) stand for listed records that agree.

Tested on: P388 leukemia ip, CD2F1 mice, survival T/C
Assay: NCI In Vivo Anticancer Drug Screen. Data for tumor model P388 Leukemia (intraperitoneal) in CD2F1 (CDF1) mice
Conditions: T/C endpoint: median survival time, vehicle: Klucel (hydroxypropylcellulose) (HPC), higher T/C = longer survival
[1] = dose: 50.0 mg/kg/injection, schedule: Q04DX002 (ip)
[2] = dose: 50.0 mg/kg/injection, schedule: Q04DX003 (ip)
[3] = dose: 100.0 mg/kg/injection, schedule: Q01DX009 (ip)
[4] = dose: 100.0 mg/kg/injection, schedule: Q04DX003 (ip)
[5] = dose: 200.0 mg/kg/injection, schedule: Q01DX001 (ip)
[6] = dose: 200.0 mg/kg/injection, schedule: Q01DX005 (ip)
[7] = dose: 200.0 mg/kg/injection, schedule: Q04DX003 (ip)
[8] = dose: 400.0 mg/kg/injection, schedule: Q01DX001 (ip)
[9] = dose: 400.0 mg/kg/injection, schedule: Q01DX005 (ip)
[10] = dose: 400.0 mg/kg/injection, schedule: Q01DX009 (ip)
[11] = dose: 400.0 mg/kg/injection, schedule: Q04DX002 (ip)
[12] = dose: 400.0 mg/kg/injection, schedule: Q04DX003 (ip)

CC(=O)[C@H]1CC[C@H]2[C@@H]3C[C@H](C)C4=CC(=O)CC[C@]4(C)[C@H]3C(=O)C[C@]12C
T/C (dose: 50.0 mg/kg/injection, schedule: Q01DX001 (ip)): 89, 90, 94 [5 of 6 alive], 95 (2×), 96, 97, 98 (2×), 100 (7×), 101 (3×), 102 (2×), 103, 104, 105 (2×), 109 [2 of 3 alive], 110, 111 (2×), 113, 120, 122 % of control | T/C (dose: 50.0 mg/kg/injection, schedule: Q01DX005 (ip)): 87, 90, 94 (2×), 95, 96, 97 (5×), 98, 99, 100 (4×), 102 (2×), 103, 105 (3×), 106, 107 (3×), 108, 110, 110 [5 of 6 alive], 111 (3×), 112, 113, 114 % of control | T/C (dose: 50.0 mg/kg/injection, schedule: Q01DX009 (ip)): 87, 89 (2×), 94 (2×), 95 (3×), 96, 97, 98 (2×), 99 (2×), 100 (3×), 101 (6×), 102 (2×), 103 (2×), 104, 105, 108 (2×), 110, 111, 113, 117 % of control | T/C [1]: 93, 94, 95 (3×), 97 (2×), 99 (3×), 100 (8×), 102, 103 (2×), 104 (3×), 104 [2 of 3 alive], 105 (3×), 107 (2×), 108, 109 (2×), 112 % of control | survivor count [1]: 6 of 6 | T/C [2]: 88 [2 of 3 alive], 91, 94 [2 of 3 alive], 95 (2×), 96 (2×), 99, 100 (8×), 101 (2×), 102 (2×), 103 (2×), 104 (2×), 104 [2 of 3 alive], 105, 106 (4×), 109, 111, 112, 115 % of control | survivor count [2]: 3 of 3 and 6 of 6 | T/C (dose: 100.0 mg/kg/injection, schedule: Q01DX001 (ip)): 87, 89, 93, 94, 95, 97 (2×), 98, 99 (2×), 100 (3×), 101 (3×), 102 (3×), 103 (2×), 104 (2×), 106 (2×), 109, 110 (2×), 114, 115, 118, 122 % of control | T/C (dose: 100.0 mg/kg/injection, schedule: Q01DX005 (ip)): 89, 93 [5 of 6 alive], 94 (2×), 95, 96, 97 (2×), 97 [5 of 6 alive], 98 (4×), 99, 100 (2×), 101 (5×), 102 (3×), 104, 105 (2×), 106, 106 [5 of 6 alive], 107 (4×), 108 (2×), 109 % of control | T/C [3]: 86 [5 of 6 alive], 91 (2×), 93, 93 [5 of 6 alive], 94 (3×), 95, 97, 98, 98 [5 of 6 alive], 99, 102, 103 (3×), 104 (3×), 105, 107, 109, 111 (2×), 112, 113, 114, 115, 117 [5 of 6 alive], 122, 132 % of control | survivor count [3]: 3 of 3 | T/C (dose: 100.0 mg/kg/injection, schedule: Q04DX002 (ip)): 87, 90 (2×), 92 (2×), 93, 94, 95, 96, 97, 98, 99 [5 of 6 alive], 100 (7×), 101 (2×), 102, 103 (2×), 104, 106 (4×), 108, 111 [2 of 3 alive], 112, 115, 116, 117 % of control | T/C [4]: 87, 88, 96 (2×), 98, 99 (3×), 100 (5×), 101, 102 (3×), 103 (2×), 104 (4×), 105 (2×), 106, 107, 108, 109 (2×), 110 (2×), 113 % of control (2×) | survivor count [4]: 2 of 3, 3 of 3, 6 of 6 | T/C [5]: 90, 95 (2×), 96, 99, 100 (10×), 101 (5×), 102, 103, 104 (2×), 105 (2×), 107 (2×), 111, 120, 137 % of control | survivor count [5]: 5 of 6 | T/C [6]: 89, 90, 90 [5 of 6 alive], 91, 92, 93 (4×), 96 (2×), 97 (3×), 99 (2×), 100 (4×), 101, 102 (3×), 102 [5 of 6 alive], 104 (3×), 105 (2×), 106, 107, 112, 117, 121 % of control | survivor count [6]: 2 of 3 | T/C (dose: 200.0 mg/kg/injection, schedule: Q01DX009 (ip)): 89, 90, 93 (2×), 95 (2×), 97, 98 (2×), 99, 100 (2×), 102 (4×), 103 (4×), 104, 105 (2×), 107, 108, 109 (2×), 110, 111, 112, 118, 119, 122, 128 % of control (2×) | T/C (dose: 200.0 mg/kg/injection, schedule: Q04DX002 (ip)): 90, 91, 92, 93, 95, 97 (2×), 98 (2×), 99, 100 (5×), 102 (3×), 103 (3×), 104 (2×), 105 (5×), 107, 110, 111, 113 (2×), 114, 122 % of control | T/C [7]: 88 (2×), 94 (2×), 95, 96, 98, 99 (2×), 100 (6×), 101 [2 of 3 alive], 101 [5 of 6 alive], 102, 103 (2×), 104 (3×), 105 (2×), 106 (3×), 107 (2×), 109 (2×), 110, 113 % of control | survivor count [7]: 4 of 6, 3 of 3, 6 of 6 | T/C [8]: 87, 94, 97 [5 of 6 alive], 100 (10×), 100 [5 of 6 alive], 101, 101 [5 of 6 alive], 102 (2×), 102 [4 of 6 alive], 103, 104 (2×), 105 (3×), 106 (2×), 107 (2×), 111, 120 % of control [2 of 3 alive] | survivor count [8]: 0 of 3 | T/C [9]: 88, 89, 92, 93, 95, 95 [5 of 6 alive], 97, 99, 100, 100 [4 of 6 alive], 101 (2×), 102, 107, 107 [2 of 3 alive], 107 [5 of 6 alive], 108, 109, 110 [2 of 3 alive], 111, 111 [5 of 6 alive], 112 (2×), 117, 120, 129 % of control | survivor count [9]: 0 of 3, 0 of 6, 1 of 6, 1 of 3, 3 of 6, 3 of 3 | T/C [10]: 90, 94 [5 of 6 alive], 95 [2 of 3 alive], 98, 98 [5 of 6 alive], 99 (2×), 100, 101, 102, 103 (2×), 104 [5 of 6 alive], 105, 106, 107 [5 of 6 alive], 108, 108 [2 of 3 alive], 108 [4 of 6 alive], 109, 113, 114 [2 of 3 alive], 117 [2 of 3 alive], 119, 122 % of control | survivor count [10]: 0 of 3, 0 of 6, 1 of 3, 2 of 6, 3 of 6, 3 of 3, 6 of 6 | T/C [11]: 91 (2×), 93 (2×), 95, 99 (2×), 100, 100 [4 of 6 alive], 101 (3×), 102 (3×), 102 [2 of 3 alive], 102 [4 of 6 alive], 104 (2×), 105, 106, 106 [5 of 6 alive], 107 [2 of 3 alive], 108, 108 [4 of 6 alive], 109, 109 [5 of 6 alive], 110, 114 % of control | survivor count [11]: 0 of 3, 0 of 6, 3 of 6, 2 of 3 | T/C [12]: 87, 88 (2×), 89, 91 [2 of 3 alive], 94, 99, 100 (6×), 101, 101 [5 of 6 alive], 102 (2×), 103, 103 [5 of 6 alive], 104, 106, 107 (2×), 108 (2×), 109 (3×), 111, 112, 116 (2×), 146 % of control | survivor count [12]: 1 of 3, 3 of 3, 6 of 6
